In article PMC3276509:
No constants are given. Whether binding was seen depends on the method and setting. In cells and extracts the contact can be indirect. Some entries that bind do so weakly or less than the wild type. Values belong to the molecule of their own block, whether it stands above or below them.

The chains behind the UniProt entries cited, without tags or fusion partners. Residues count along the entry.
UniProt P23818, residues 19-907: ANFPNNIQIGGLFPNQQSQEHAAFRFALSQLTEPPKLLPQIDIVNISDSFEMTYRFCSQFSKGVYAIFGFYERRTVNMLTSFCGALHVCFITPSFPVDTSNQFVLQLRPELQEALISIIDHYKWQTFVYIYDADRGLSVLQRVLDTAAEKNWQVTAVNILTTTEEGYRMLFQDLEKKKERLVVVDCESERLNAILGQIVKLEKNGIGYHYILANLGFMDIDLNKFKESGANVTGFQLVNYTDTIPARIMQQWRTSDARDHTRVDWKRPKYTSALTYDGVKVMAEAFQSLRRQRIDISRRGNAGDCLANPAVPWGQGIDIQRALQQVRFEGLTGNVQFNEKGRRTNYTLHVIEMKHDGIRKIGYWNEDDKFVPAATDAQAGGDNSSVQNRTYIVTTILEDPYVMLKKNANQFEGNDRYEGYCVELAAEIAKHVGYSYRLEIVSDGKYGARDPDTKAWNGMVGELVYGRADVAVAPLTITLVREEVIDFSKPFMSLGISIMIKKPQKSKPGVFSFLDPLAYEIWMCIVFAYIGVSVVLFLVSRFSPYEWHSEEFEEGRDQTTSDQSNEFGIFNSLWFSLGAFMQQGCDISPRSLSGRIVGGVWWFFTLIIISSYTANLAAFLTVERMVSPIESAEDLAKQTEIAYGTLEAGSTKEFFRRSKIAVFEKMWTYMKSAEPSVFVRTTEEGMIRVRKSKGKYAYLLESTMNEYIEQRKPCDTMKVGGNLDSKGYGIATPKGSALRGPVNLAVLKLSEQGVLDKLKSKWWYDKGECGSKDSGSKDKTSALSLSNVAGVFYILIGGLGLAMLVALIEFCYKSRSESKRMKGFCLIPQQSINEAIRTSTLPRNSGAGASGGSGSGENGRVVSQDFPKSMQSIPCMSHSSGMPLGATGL
UniProt Q811D0: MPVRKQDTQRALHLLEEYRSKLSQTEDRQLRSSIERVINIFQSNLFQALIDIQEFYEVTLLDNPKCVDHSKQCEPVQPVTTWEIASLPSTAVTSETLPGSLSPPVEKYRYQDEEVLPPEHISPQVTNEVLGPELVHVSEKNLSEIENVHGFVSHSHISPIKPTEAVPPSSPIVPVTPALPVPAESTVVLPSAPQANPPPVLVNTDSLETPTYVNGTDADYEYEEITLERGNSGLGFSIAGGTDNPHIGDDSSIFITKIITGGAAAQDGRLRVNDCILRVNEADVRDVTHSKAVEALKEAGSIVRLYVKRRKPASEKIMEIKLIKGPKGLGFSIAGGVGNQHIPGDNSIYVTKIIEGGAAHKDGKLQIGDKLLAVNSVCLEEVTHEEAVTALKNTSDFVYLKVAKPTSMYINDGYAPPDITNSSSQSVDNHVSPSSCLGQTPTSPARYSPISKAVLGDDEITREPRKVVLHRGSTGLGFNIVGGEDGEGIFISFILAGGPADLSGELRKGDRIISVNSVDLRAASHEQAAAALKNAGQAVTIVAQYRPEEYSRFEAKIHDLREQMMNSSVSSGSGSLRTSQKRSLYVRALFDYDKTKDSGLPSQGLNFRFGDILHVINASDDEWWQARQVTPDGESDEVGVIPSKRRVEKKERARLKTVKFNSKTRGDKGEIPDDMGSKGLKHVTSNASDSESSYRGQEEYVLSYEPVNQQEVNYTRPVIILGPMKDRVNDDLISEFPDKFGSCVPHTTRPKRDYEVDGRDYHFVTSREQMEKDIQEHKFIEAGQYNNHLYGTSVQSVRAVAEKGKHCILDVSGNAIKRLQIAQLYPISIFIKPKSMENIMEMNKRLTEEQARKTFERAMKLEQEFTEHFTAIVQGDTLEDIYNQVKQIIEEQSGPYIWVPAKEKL

Assays:
[1] = molecular target: T1, rapsyn (mouse (endogenous in primary myotubes, C57 mice)) (UniProt P12672); experiment: co-IP; membrane extracts (40 ug, 1% NP40 buffer) of pure myotubes and of myotubes with cortical neurons seeded over them; precipitated with monoclonal anti-rapsyn antibody and protein A/G overnight at 4°C, washed with RIPA buffer, immunoblotted for GluR1, SAP97, stargazin and PSD95
T1 sequence: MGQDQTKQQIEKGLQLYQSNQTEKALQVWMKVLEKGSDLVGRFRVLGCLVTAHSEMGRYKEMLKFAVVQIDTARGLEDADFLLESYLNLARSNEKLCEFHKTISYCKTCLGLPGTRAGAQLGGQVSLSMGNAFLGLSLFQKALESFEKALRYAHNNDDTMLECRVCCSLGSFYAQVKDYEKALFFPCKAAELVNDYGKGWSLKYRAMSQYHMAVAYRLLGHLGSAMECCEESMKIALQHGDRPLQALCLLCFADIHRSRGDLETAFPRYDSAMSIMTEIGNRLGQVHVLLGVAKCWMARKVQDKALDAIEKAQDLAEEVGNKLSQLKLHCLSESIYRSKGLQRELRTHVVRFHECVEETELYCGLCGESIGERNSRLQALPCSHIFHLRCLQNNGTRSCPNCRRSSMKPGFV

[2] = molecular target: GluR1 AMPA receptor subunit (mouse (endogenous in myotube-neuron cocultures, C57 mice)) (UniProt P23818); experiment: co-IP; membrane extracts (40 ug, 1% NP40 buffer) of pure myotubes and of myotubes with cortical neurons seeded over them; precipitated with rabbit anti-GluR1 antibody and protein A/G overnight at 4°C, washed with RIPA buffer, immunoblotted for rapsyn

binding [1]: binds
Molecule: SAP97 (from UniProt Q811D0 1-905)

binding [2]: binds
B1: rapsyn (protein, UniProt P12672 1-412)
chain: T1 sequence

binding [1]: binds
B2: stargazin (protein, UniProt O88602 1-323)
chain: MGLFDRGVQMLLTTVGAFAAFSLMTIAVGTDYWLYSRGVCKTKSVSENETSKKNEEVMTHSGLWRTCCLEGNFKGLCKQIDHFPEDADYEADTAEYFLRAVRASSIFPILSVILLFMGGLCIAASEFYKTRHNIILSAGIFFVSAGLSNIIGIIVYISANAGDPSKSDSKKNSYSYGWSFYFGALSFIIAEMVGVLAVHMFIDRHKQLRATARATDYLQASAITRIPSYRYRYQRRSRSSSRSTEPSHSRDASPVGVKGFNTLPSTEISMYTLSRDPLKAATTPTATYNSDRDNSFLQVHNCIQKDSKDSLHANTANRRTTPV
